## Percent effect of library compounds

The values are deposited in ChEMBL (CHEMBL3988442, “University of Dundee, Small-Polar-MMV Screening Library” (2021)).

Mtb glucose medium: 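Whole-cell growth test on Mycobacterium tuberculosis, read after 3 days in glucose-containing 7H9 medium; the read-out is not stated. Compounds at 50 µM. The record gives no direction; compounds that gave an IC50 in retests scored well above the rest, so higher reads as more growth inhibition. Of about 69,000 compounds tested this way, about 760 (1.1%) reached 50% or more in at least one test.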
Mtb cholesterol medium: 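Phenotypic screen: M. tuberculosis growth, cholesterol and DPPC medium, 4 days; the read-out is not stated. Tested at 50 µM. Higher reads as more growth inhibition (inferred: compounds with an IC50 in retests scored well above the rest). Of about 69,000 compounds tested this way, about 370 (0.54%) reached 50% or more in at least one test.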

Each number is a percent effect as filed. The record does not define 0% and 100%; most values in the screen are far below 50% and negative numbers occur (in some assays of this library far below -100). The compounds are a random part of those screened. Two or more numbers in one place are separate tests of the same structure; such repeats can differ widely.

compound	Mtb glucose medium	Mtb cholesterol medium
CNC(=O)CC1CCN(Cc2nc(-c3cccc(Cl)c3)oc2C)CC1	35.15%	27.32%
Cc1ccc(C(=O)N(C)Cc2csc(C)n2)c(=O)[nH]1	22.43%	3.284%
Cc1oncc1C(=O)N1CC2CC1(C(=O)N1CCCC1)C2	-29.29%	-1.061%
O=C(C1CCCN(Cc2cccnc2)C1)N1CCc2sccc2C1 (stereo unspecified)	-7.318%	-18.3%
[H][C@]12CC[C@@H](N(C)c3cccnn3)[C@@]1([H])CN(Cc1ccccc1C(=O)O)C2	-4.667%	-0.7606% & -5.026%
CC(=O)N1CCC(c2nnc3ccc(C(=O)NCCN(C)C)cn23)C1 (stereo unspecified)	-6.042%	-19.82%
N#CC1(NC(=O)c2ccc(F)c(Br)c2)CCSC1 (stereo unspecified)	1.5%	-15.77%
Cc1cc(C(=O)CN2C(=O)c3ccccc3CS2(=O)=O)c(C)[nH]1	21.01% & -5.257%	7.275%
CC(OCC1CC1)C(=O)NCc1ccc(Cn2ccnc2)cc1 (stereo unspecified)	12.1%	-14.8% & -8.032%
CCOCC(O)CN1CCN(C(=O)C2CCCCC2)CC1 (stereo unspecified)	-22.99%	-22.16%
Cn1cc(CN2CCc3c(nnn3C)C2COCc2ccccc2)cn1.O=C(O)C(F)(F)F (stereo unspecified)	-19.85% & -2.787%	-17.29%
CCc1nsc(NC2CCCn3nc(CC)nc32)n1 (stereo unspecified)	22.74%	18.65%
Cc1cccc(-c2nccn2C2CC(=O)N(C(C)C)C2)n1 (stereo unspecified)	-30.92%	-19.34%
N#CC1(c2ccccc2)CCN(C(=O)C2CCCN(C(N)=O)C2)CC1 (stereo unspecified)	-82.98% & -6.648%	-42.18%
Cc1noc(C)c1CN1CC2(CCN(C(=O)c3ccoc3C)C2)CC1=O (stereo unspecified)	-1.093% & 8.657%	11.12%
COC(=O)[C@H]1CN(C(=O)NC(C)C)CCN1C(=O)CSC	1.864% & -13.59%	-7.423%
CCN(CC)Cc1cc(C(=O)N2CCC3(CC2)NCCNC3=O)c(C)o1	4.45% & 2.873%	2.486%
Cc1c(C(=O)O)cnn1-c1ccc(-c2nc(C(C)C)no2)cn1	5.753% & 7.86%	6.004%
CC(=O)N1CCC(c2nccnc2-c2ccc(F)cc2)CC1	5.755%	1.799%
CCOCC(=O)N1C[C@@H](NC(C)=O)[C@H](c2ccc(OC)cc2)C1	7.993%	4.85%
CN1CCc2c(C#N)c(NCC3CCCO3)n3cnnc3c2C1.Cl (stereo unspecified)	15.75%	-5.968%
Cn1cc(Nc2cccc(C(=O)N(CC(N)=O)C3CCCC3)c2)cn1	15.09%	-4.265% & 8.631%
COc1ccc(C(=O)NCC(=O)N(Cc2ccsc2)C2CC2)cc1OC	-55.18%	-7.924% & 1.584%
COc1ccccc1OCc1cc(C(=O)N2CCOCC2CO)n[nH]1 (stereo unspecified)	11.94%	-11.67%
CC(C)c1nc(C2CCCN2C(=O)c2cnc[nH]2)no1 (stereo unspecified)	-23.68%	-26.06%
[H][C@@]12CCN(C(=O)c3ccoc3)C[C@@]1([H])O[C@H](c1ccncn1)C2	-20.86%	-6.504%
CN(C)c1ncc(C2Nc3ccccc3C3=NCCCN32)cn1.Cl (stereo unspecified)	11.41%	3.796%
N#Cc1ccccc1N1CCCN(C(=O)NCc2cc[nH]n2)CC1	-4.201%	14.15%
CCOCCC1(CNC(=O)c2ccsc2)CCC1	35.99%	30.36%
Cc1cnc(C)c(N2CCC(C(=O)O)(n3ccc(C(C)(C)C)n3)CC2)n1	-52.65%	-22.36%
NC(=O)c1ccc(-n2ccnc2-c2cccc(O)c2)cc1N1CCCC1	-4.258%	74.73%
CC(=O)N1CCCN(c2cc(C3CN(C)CCO3)nc(C)n2)CC1 (stereo unspecified)	11.19%	-6.274%
Cc1nccc(-c2cccc(NCc3nc(C(C)C)no3)c2)n1	15.32%	-1.233%
O=C1NC2(CCN(CC(=O)N3CCOCC3)CC2)Nc2ccc(Br)cc21	12.49%	6.269% & -9.618%
O=C(CCc1ccc2c(c1)OCO2)N1CCCCC1Cn1cccn1 (stereo unspecified)	-1.513%	17.8%
COC(=O)[C@@H]1CN(C(=O)c2cscn2)C[C@H]1c1ccc(OC)cc1	-29.71%	6.105%
COc1ccccc1OC1(C(=O)O)CCN(c2cc(C)nc(C)c2)CC1	-17.28%	-24.75%
Cc1ccccc1C(CNC(=O)CSc1nnc(N)s1)N(C)C (stereo unspecified)	22.07%	13.12%
CCOC(=O)CCn1cnc2onc(-c3cc(OC)ccc3Cl)c2c1=O	-29.18%	-13.99%
CCc1nc(CNC(=O)Nc2ccc(C(=O)NC)cc2C)cs1	-6.891%	2.314%
CC(C)c1cc(C(=O)NCCN2CCCS2(=O)=O)n[nH]1	8.055%	3.257%
COC(=O)C1=NN2C(=NS(=O)(=O)c3ccccc32)N1	2.335%	12.22%
CN(Cc1n[nH]c2c1CCCCC2)C(=O)c1cc(-c2cccn2C)n[nH]1	13.7%	20.78%
CCc1ccc(C2CCCN2C(=O)CNC(=O)CCC(C)C)o1 (stereo unspecified)	15.66% & 9.326%	0.9143%
Cc1ncc(-c2ccnc(NCCc3ccc(F)cc3)n2)c(=O)[nH]1	11.94%	-15.71%
COc1c(C)cnc(CNC(=O)c2cnc3onc(C)c3c2)c1C	-9.193%	-15.28%
O=C(O)C(F)(F)F.[H][C@@]12C[C@H](C)O[C@]1([H])CCN(S(=O)(=O)c1c(C)nn(C)c1C)C2	2.194%	-10.47%
CN(Cc1ccc(-n2cccn2)cc1)c1cc(N)nc(N)n1	9.461%	-14.73%
Cc1nc(CN2CCC3(CC2)C(=O)N(C)CCN3C)cs1.O=C(O)C(F)(F)F.O=C(O)C(F)(F)F.O=C(O)C(F)(F)F	3.278%	-14.85%
CC(C)N1CCC2(CC1)NC(=O)c1cc(Br)ccc1-n1nnnc12	8.874%	11.72%
COC[C@]1(O)CCN(C2CCN(c3ccc(F)c(F)c3)CC2)CC1(C)C	-13.9%	-11.84%
COc1cc(F)ccc1N1CCN(Cc2nc(C)c(C)o2)CC1	21.94%	26.35%
CN(Cc1ccccc1)C(=O)c1cc2c(c(S(N)(=O)=O)c1)CCC2	-12.91%	-12.61%
CNC(=O)c1sc(C2CCCC2)nc1C	10.88%	2.693%
COC(=O)CN(C)C1CCc2ccccc21 (stereo unspecified)	-9.826%	-10.04%
O=C1CCC2(CCCN(C(=O)c3ccoc3)C2)CN1CCc1c[nH]cn1 (stereo unspecified)	1.528% & -1.788%	-3.852%
COc1ccc2c(c1)C(C(=O)N(C)CCn1ccnc1C)CC(=O)N2 (stereo unspecified)	-14.95%	-10.95%
O=C(O)C(F)(F)F.[H][C@]12CN(c3ncccn3)C[C@@]1(C(=O)O)CCCN(C1CCOC1)C2 (stereo partly specified)	-29.85%	-4.199%
CCOCC1CN(Cc2csc(C)n2)Cc2nccn2C1.O=C(O)C(F)(F)F (stereo unspecified)	-31.96% & -5.021%	-30.7%
c1cnc(N2CCN(CCn3ccnc3-c3ccncc3)CC2)nc1	11.25%	16.99%
Cc1ccc(CNC(C)c2ccc(N3CCN(C)CC3)c(F)c2)o1.Cl (stereo unspecified)	41.31% & 15.48%	11.06%
COc1cccc(CC(=O)N2CCc3ncnc(NCCO)c3CC2)c1	3.075% & 0.2334%	13.91%
Cc1cc(C(=O)NC2CCCOc3cc(Cl)ccc32)n(C)n1 (stereo unspecified)	9.287%	-3.555%
CN(C)C(=O)c1ccccc1NCCCOc1cccc(C#N)c1	-32.78%	9.967%
CN(CC(=O)N(C)C1CCCCC1)Cc1nc2c(cnn2C)c(=O)[nH]1	-26.3%	-39.05%
CCNC(=O)C1(Cc2cc(-c3ccccc3)no2)CCCN(C(C)C)C1 (stereo unspecified)	-0.3222%	3.956%
Cc1ccccc1C1(CNC(=O)NC(C)c2nncn2C)CC1 (stereo unspecified)	-6.485%	3.427%
Cc1[nH]ncc1C(=O)N1CCCC(n2cncn2)C1 (stereo unspecified)	-19.91%	-12.51%
Cc1cc(C)n(CC2CN(c3ccc(C#N)cn3)CCO2)n1 (stereo unspecified)	2.194%	15.45%
O=C(O)C(F)(F)F.O=C(O)C(F)(F)F.[H][C@@]12CN(CC3CC3)C[C@]1([H])OCCN2Cc1c(C)noc1C	16.54%	-5.439%
CC(C)n1nc(CNc2ncccn2)c2c1CN(C)CC2.O=C(O)C(F)(F)F.O=C(O)C(F)(F)F.O=C(O)C(F)(F)F	6.302%	-4.437%
COCCCNC(=O)c1c(-n2cnnn2)sc2c1CCC2	0.1709%	-4.39%
CCN1CCn2c(C)cnc2C12CCN(C(=O)NCC(C)C)CC2.O=C(O)C(F)(F)F	2.528%	2.17% & 0.5643%
Cc1cc(-c2cnc(NC3CCCC3)nc2-c2ccco2)on1	42.52%	30.59%

The first 8 entries again:

compound	Mtb glucose medium	Mtb cholesterol medium
CNC(=O)CC1CCN(Cc2nc(-c3cccc(Cl)c3)oc2C)CC1	35.15%	27.32%
Cc1ccc(C(=O)N(C)Cc2csc(C)n2)c(=O)[nH]1	22.43%	3.284%
Cc1oncc1C(=O)N1CC2CC1(C(=O)N1CCCC1)C2	-29.29%	-1.061%
O=C(C1CCCN(Cc2cccnc2)C1)N1CCc2sccc2C1 (stereo unspecified)	-7.318%	-18.3%
[H][C@]12CC[C@@H](N(C)c3cccnn3)[C@@]1([H])CN(Cc1ccccc1C(=O)O)C2	-4.667%	-0.7606% & -5.026%
CC(=O)N1CCC(c2nnc3ccc(C(=O)NCCN(C)C)cn23)C1 (stereo unspecified)	-6.042%	-19.82%
N#CC1(NC(=O)c2ccc(F)c(Br)c2)CCSC1 (stereo unspecified)	1.5%	-15.77%
Cc1cc(C(=O)CN2C(=O)c3ccccc3CS2(=O)=O)c(C)[nH]1	21.01% & -5.257%	7.275%